{"sequences": {"note": "By UniProt entry, the sequences of proteins in these tests, tags left out. Where a name states a change or a piece, a line headed by the entry shows the natural chain unless it says otherwise.", "UniProt Q9UNA4": "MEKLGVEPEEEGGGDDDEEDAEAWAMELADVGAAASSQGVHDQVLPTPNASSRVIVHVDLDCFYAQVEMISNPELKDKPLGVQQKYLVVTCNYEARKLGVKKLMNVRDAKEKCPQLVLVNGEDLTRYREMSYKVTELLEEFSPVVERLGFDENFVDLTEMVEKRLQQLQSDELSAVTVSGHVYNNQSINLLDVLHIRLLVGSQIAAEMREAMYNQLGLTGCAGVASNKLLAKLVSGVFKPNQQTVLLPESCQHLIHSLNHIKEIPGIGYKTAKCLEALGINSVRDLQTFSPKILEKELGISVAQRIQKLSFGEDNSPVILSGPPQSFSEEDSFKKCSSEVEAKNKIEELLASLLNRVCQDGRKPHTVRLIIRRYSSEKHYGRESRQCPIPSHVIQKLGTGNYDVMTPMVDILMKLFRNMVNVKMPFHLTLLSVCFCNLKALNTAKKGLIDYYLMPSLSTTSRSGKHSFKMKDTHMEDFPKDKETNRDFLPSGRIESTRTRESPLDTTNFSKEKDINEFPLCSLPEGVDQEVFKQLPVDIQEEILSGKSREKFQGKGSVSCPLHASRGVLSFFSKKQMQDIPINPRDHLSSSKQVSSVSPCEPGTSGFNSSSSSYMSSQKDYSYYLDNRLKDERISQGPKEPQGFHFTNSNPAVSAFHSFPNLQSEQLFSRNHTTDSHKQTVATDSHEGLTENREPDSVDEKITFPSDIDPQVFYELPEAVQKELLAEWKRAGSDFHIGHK"}, "source": "PubChem BioAssay AID588590", "about": "(National Center for Advancing Translational Sciences (NCATS), 2011)", "note": "About 4,000 (1%) of roughly 390,000 compounds were called active. The inconclusive results got no clear call from the source; some entries with a clear call stand among them for comparison. The call rests on the fitted dose curve; in most records, active means well fitted inhibition curve with a large enough effect; inconclusive means small, poorly fitted or top-dose-only effect, or another doubt; inactive means no such curve, though single readings can be large or run the other way. Potencies beside an inconclusive call are fits to weak or partial responses and may not hold up. Potency means the concentration at half of the fitted maximal effect.", "data": [{"biological_target": "DNA polymerase iota (Homo sapiens) (UniProt Q9UNA4)", "assay": "qHTS for Inhibitors of Polymerase Iota", "settings": "Pol iota fluorescent replication assay, 10 min; series mostly up to 115 µM", "outline": "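Fluorescent replication assay read twice, at 0 min and 10 min after adding 50 nM (final) substrate. Enzyme (10 nM) and compounds were first incubated 15 min at room temperature; enzyme-free buffer wells were negative controls.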", "values": [{"smiles": "CCc1ccc(C2C(C#N)=C(N)SC(N)=C2C#N)cc1", "Potency": "inconclusive: 22.4 µM [inhibitor, partial curve]"}, {"smiles": "O=C(CN1C(=O)/C(=C/c2ccccc2)SC1=S)NNC(=O)c1ccccc1O", "Potency": "inconclusive: 39.8 µM [inhibitor, partial curve]"}, {"smiles": "Cc1[nH][nH]c(=O)c1C(c1c(C)[nH][nH]c1=O)c1cn(Cc2ccccc2Cl)c2ccccc12", "Potency": "active: 5.62 µM"}, {"smiles": "COc1ccc(CCCc2nnc(SCC(=O)NN)o2)c(C)c1", "Potency": "inconclusive: 17.8 µM [inhibitor, partial curve]"}, {"smiles": "COCCCNS(=O)(=O)c1ccc2[nH]c(=O)[nH]c2c1", "Potency": "inconclusive: 89.1 µM [inhibitor, single point]"}, {"smiles": "COC(=O)C1=C(C)N(CCCC(=O)O)C(=O)NC1c1cccc(OC)c1", "note": "(centres undefined)", "Potency": "inactive"}, {"smiles": "CCCc1cc(C(=O)Nc2cc(C)ccc2O)no1", "Potency": "inactive"}, {"smiles": "COc1ccc(CCNC(=O)Cn2nnc(-c3cccc(C(F)(F)F)c3)n2)cc1OC", "Potency": "inconclusive: 89.1 µM [inhibitor, single point]"}, {"smiles": "COC(=O)c1c(NC(=S)Nc2ccc(C(=O)N3CCOCC3)cc2)sc2c1CCC2", "Potency": "inconclusive: 25.1 µM [inhibitor, single point]"}, {"smiles": "C[C@@H]1CN([C@@H](C)CO)C(=O)c2cc(NC(=O)Nc3ccc4c(c3)OCO4)ccc2O[C@H]1CN(C)S(=O)(=O)c1ccc(F)cc1", "Potency": "inconclusive: 44.7 µM [inhibitor, partial curve, poor fit]"}, {"smiles": "COc1cc2[nH]c(=O)n(Cc3ccc(C(=O)N4CCN(c5cccc(C)c5C)CC4)cc3)c(=O)c2cc1OC", "Potency": "inconclusive: 89.1 µM [inhibitor, partial curve, poor fit]"}, {"smiles": "CCN(c1ccccc1)C1SC(=O)N(c2ccccc2)C1=O", "note": "(centres undefined)", "Potency": "inactive"}, {"smiles": "Cc1nc2c(C)cccn2c(=O)c1NC(=O)c1ccc2c(c1)OCO2", "Potency": "inactive"}, {"smiles": "O=S(=O)(NC(=NC1CCCC1)C(F)(F)F)c1ccccc1", "Potency": "inconclusive: 89.1 µM [inhibitor, single point]"}, {"smiles": "COc1cc(NS(=O)(=O)c2ccc(NC(C)=O)cc2)nc(OC)n1", "Potency": "inconclusive: 70.8 µM [inhibitor, partial curve, poor fit]"}, {"smiles": "C/C=C/C=C/C(=O)N1CC2(CC(c3cccc(NC(=O)CCCCC)c3)=NO2)C[C@H]1C(N)=O", "note": "(some centres undefined)", "Potency": "inconclusive: 11.2 µM [inhibitor, full curve]"}, {"smiles": "CCOCCOc1nc(C)cc(C)c1S(=O)(=O)c1ccccc1C", "Potency": "inconclusive: 89.1 µM [inhibitor, single point]"}, {"smiles": "CN(C1CCS(=O)(=O)C1)S(=O)(=O)c1ccccc1", "note": "(centres undefined)", "Potency": "inactive"}, {"smiles": "O=C(CSc1n[nH]c(-c2ccccc2Cl)n1)N1CCN(c2ccc(F)cc2)CC1", "Potency": "inactive"}, {"smiles": "COc1cc(NC(=O)c2cc3ccccc3cc2OC)ccc1NC(=O)c1cccs1", "Potency": "inconclusive: 56.2 µM [inhibitor, partial curve, poor fit]"}, {"smiles": "CN1/C(=C/C2CC(=O)NC2=O)C(C)(C)c2ccccc21", "note": "(centres undefined)", "Potency": "inconclusive: 31.6 µM [inhibitor, single point]"}, {"smiles": "Cc1ccc(NC(=O)Cn2nc(C)c(S(=O)(=O)N(C)C)c2C)cc1C", "Potency": "inconclusive: 1.41 µM [inhibitor, full curve, poor fit]"}, {"smiles": "CCc1cc2c(=O)c(-c3nc(C)cs3)coc2cc1O", "Potency": "inconclusive: 35.5 µM [inhibitor, single point]"}, {"smiles": "COc1ccc2c(CC(=O)N3CCN(S(=O)(=O)c4ccc(F)cc4)CC3)coc2c1", "Potency": "inconclusive: 79.4 µM [inhibitor, single point]"}, {"smiles": "CCn1c(CSc2nc(C)cs2)nc2cc(S(=O)(=O)N(C)C)ccc21", "Potency": "inconclusive: 17.8 µM [inhibitor, partial curve, poor fit]"}, {"smiles": "Cc1ccc(C(=O)N/N=C/c2ccoc2)cc1C", "Potency": "inactive"}, {"smiles": "c1ccc2c(-c3c[nH]c4ccccc34)c3ccccc3nc2c1", "Potency": "inconclusive: 35.5 µM [inhibitor, single point]"}, {"smiles": "Cc1ccc(-c2nsc(NC(=O)c3oc4cc(C)c(Cl)cc4c3C)n2)cc1", "Potency": "inactive"}, {"smiles": "CC1=Nc2ccccc2/C1=C\\c1nc(-c2ccccc2)oc1O", "Potency": "inconclusive: 39.8 µM [inhibitor, single point]"}, {"smiles": "O=C(COc1cccnc1[N+](=O)[O-])Nc1c(Cl)cccc1Cl", "Potency": "inactive"}, {"smiles": "Cc1ccccc1C(=O)NCc1ccc2c(c1)CCN2C(=O)c1ccccc1", "Potency": "inactive"}, {"smiles": "C#CCOCCOCCOCCNc1nc(N2CCN(C(=O)C([C@@H](C)O)n3cc([C@@H](N)CCCCN)nn3)CC2)nc(N2CCN(C(=O)[C@H](CCC(=O)O)n3cc([C@@H](N)[C@H](C)CC)nn3)CC2)n1", "note": "(some centres undefined)", "Potency": "inconclusive: 1.58 µM [inhibitor, full curve, poor fit]"}, {"smiles": "COc1cccc(CCC2C(=O)CCCC2=O)c1", "Potency": "inconclusive: 89.1 µM [inhibitor, partial curve]"}, {"smiles": "CCOc1cc(/C=C2/C(=N)N3C(=NC2=O)SN=C3S(C)(=O)=O)ccc1OC(=O)c1ccco1", "Potency": "inconclusive: 17.8 µM [inhibitor, partial curve, poor fit]"}, {"smiles": "COc1ccc(N2Cc3cccc(C(=O)N4CCOCC4)c3C2=O)cc1", "Potency": "inactive"}, {"smiles": "O=C(CCN1C(=O)/C(=C\\c2cccs2)SC1=S)Nc1ccc(C(=O)O)cc1", "Potency": "inconclusive: 25.1 µM [inhibitor, full curve]"}, {"smiles": "CCCCCCSc1ccc([C@@H]2[C@H]3C(=O)N(CC)C(=O)[C@H]3[C@]3(C(=O)OC)CCCN23)cc1", "Potency": "inconclusive: 0.708 µM [inhibitor, full curve, poor fit]"}, {"smiles": "Cc1ccc(N(C(=O)c2csnn2)C(C(=O)NC2CCCCC2)c2cccnc2)cc1", "note": "(centres undefined)", "Potency": "inactive"}, {"smiles": "CCOc1ccc(NC(=O)c2cnn3c(C(F)F)cc(-c4ccc(C)cc4)nc23)cc1", "Potency": "inconclusive: 89.1 µM [inhibitor, single point]"}, {"smiles": "CSc1ccc(/C=C/C(=O)c2c(O)cc(C)oc2=O)cc1", "Potency": "inconclusive: 50.1 µM [inhibitor, partial curve, poor fit]"}, {"smiles": "Cc1ccc(-n2ncc(C(=O)N3CCN(C4CCCCC4)CC3)c2C2CCN(C(=O)OC(C)(C)C)CC2)cc1", "Potency": "inconclusive: 89.1 µM [inhibitor, single point]"}, {"smiles": "CCCCSCCCNC(=O)c1cc(-c2cccnc2)nc2ccc(S(=O)(=O)N3CCC(C)CC3)cc12", "Potency": "inactive"}, {"smiles": "CCCCCCNc1ncnc2c1sc1nc(N3CCOCC3)c3c(c12)CCCC3", "Potency": "inconclusive: 89.1 µM [inhibitor, single point]"}, {"smiles": "O=C(COC(=O)c1ccc(Cl)nc1)Nc1cccc(S(=O)(=O)N2CCCCC2)c1", "Potency": "inconclusive: 0.891 µM [inhibitor, full curve, poor fit]"}, {"smiles": "COc1ccc(-c2cc(=O)c3cc(F)ccc3[nH]2)cc1", "Potency": "inconclusive: 56.2 µM [inhibitor, partial curve, poor fit]"}, {"smiles": "COc1ccccc1N(Cc1cc(=O)[nH]c2ccccc12)C(=O)c1ccccc1", "Potency": "inconclusive: 89.1 µM [inhibitor, partial curve, poor fit]"}, {"smiles": "Cc1nn(C2CCS(=O)(=O)C2)c(Cl)c1/C=C/C(=O)OCC(N)=O", "note": "(centres undefined)", "Potency": "inactive"}, {"smiles": "COC(=O)C(Cc1c[nH]c2ccccc12)NC(=O)c1cc(-c2ccc(OC)c(OC)c2)oc1C", "note": "(centres undefined)", "Potency": "inconclusive: 44.7 µM [inhibitor, partial curve]"}, {"smiles": "Cc1oc2ccc(O)c(CN3CCN(Cc4ccccc4)CC3)c2c1C(=O)Nc1cccc(Cl)c1C", "Potency": "inconclusive: 70.8 µM [inhibitor, partial curve]"}, {"smiles": "CC1=NN(c2ccc(C)cc2)C(=O)/C1=C\\C=C\\c1ccccc1", "Potency": "inactive"}, {"smiles": "CC(C)C(C)NC(=O)COc1ccc(-c2ccccc2)cc1", "note": "(centres undefined)", "Potency": "inconclusive: 44.7 µM [inhibitor, single point]"}, {"smiles": "CCOC(=O)c1c(NC(=O)c2ccccc2Br)sc2c1CCc1ccccc1-2", "Potency": "inconclusive: 14.1 µM [inhibitor, single point]"}, {"smiles": "Cc1sc2ccccc2[n+]1Cc1ccccc1", "Potency": "inactive"}, {"smiles": "CCCCNS(=O)(=O)c1ccc2nc(SCC(=O)Nc3sccc3C#N)[nH]c2c1", "Potency": "inconclusive: 39.8 µM [inhibitor, single point]"}, {"smiles": "Nc1[nH]c(=O)[nH]c(=O)c1N=Cc1ccccc1", "Potency": "inconclusive: 5.01 µM [inhibitor, full curve, poor fit]"}, {"smiles": "CCOC(=O)[C@H]1[C@H]2COc3ccc(Br)cc3[C@@H]2N2C(=O)c3cc(Br)ccc3NC(=O)[C@@]12C", "Potency": "inconclusive: 31.6 µM [inhibitor, single point]"}, {"smiles": "Cc1c(NC(=O)c2cccnc2C(=O)O)cccc1C(=O)O", "Potency": "inconclusive: 112 µM [inhibitor, single point]"}, {"smiles": "CCOc1ccccc1CN1CCNC(=O)C1CC(=O)NC1CCCCCCC1", "note": "(centres undefined)", "Potency": "inactive"}, {"smiles": "CC(C)Oc1cccc(C(=O)Nc2ccc(-c3nc4cc(Cl)cc(Cl)c4o3)cc2)c1", "Potency": "inactive"}, {"smiles": "O=C(CN1C(=O)/C(=C/c2ccccc2F)Sc2ccccc21)NCc1cccnc1", "Potency": "inconclusive: 39.8 µM [inhibitor, partial curve, poor fit]"}, {"smiles": "Cc1occc1C(=O)Nc1c(F)c(F)c(F)c(F)c1F", "Potency": "inconclusive: 31.6 µM [inhibitor, single point]"}, {"smiles": "Cc1cc(C)nc(Sc2ccc(/C=C(\\C#N)C(=O)Nc3ccccc3)o2)n1", "Potency": "inconclusive: 22.4 µM [inhibitor, full curve]"}, {"smiles": "Cc1ccc(NC(=O)[C@H](C)NC(=O)C2CCN(C(=O)[C@@H](N)C(C)C)CC2)cc1", "Potency": "inconclusive: 0.631 µM [inhibitor, full curve, poor fit]"}, {"smiles": "C/C(=N\\NC(=O)c1cc2c(s1)CCC(C)C2)c1ccncc1", "note": "(centres undefined)", "Potency": "inactive"}]}]}
